The results in this text go back to the supplement of paper PMC10849652.

Protein sequences, listed by entry. Tags and fused reporters are not part of them. Lines headed by an entry give the natural chain unless they say otherwise; changes in a name come on top.
UniProt P02750: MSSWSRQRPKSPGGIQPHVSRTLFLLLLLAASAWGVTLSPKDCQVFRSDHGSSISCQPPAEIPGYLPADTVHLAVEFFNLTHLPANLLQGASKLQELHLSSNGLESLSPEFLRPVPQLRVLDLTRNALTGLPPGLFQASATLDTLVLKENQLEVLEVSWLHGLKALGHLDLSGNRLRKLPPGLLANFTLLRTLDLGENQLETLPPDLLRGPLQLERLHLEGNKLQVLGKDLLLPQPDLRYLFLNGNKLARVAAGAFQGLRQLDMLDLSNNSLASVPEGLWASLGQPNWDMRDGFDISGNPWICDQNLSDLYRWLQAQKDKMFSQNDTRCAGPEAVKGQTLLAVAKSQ
UniProt O15243: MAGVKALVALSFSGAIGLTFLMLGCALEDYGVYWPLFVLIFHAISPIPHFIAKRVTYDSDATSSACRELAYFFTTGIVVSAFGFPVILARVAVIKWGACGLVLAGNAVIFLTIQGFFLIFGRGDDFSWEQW
UniProt Q5T7N2: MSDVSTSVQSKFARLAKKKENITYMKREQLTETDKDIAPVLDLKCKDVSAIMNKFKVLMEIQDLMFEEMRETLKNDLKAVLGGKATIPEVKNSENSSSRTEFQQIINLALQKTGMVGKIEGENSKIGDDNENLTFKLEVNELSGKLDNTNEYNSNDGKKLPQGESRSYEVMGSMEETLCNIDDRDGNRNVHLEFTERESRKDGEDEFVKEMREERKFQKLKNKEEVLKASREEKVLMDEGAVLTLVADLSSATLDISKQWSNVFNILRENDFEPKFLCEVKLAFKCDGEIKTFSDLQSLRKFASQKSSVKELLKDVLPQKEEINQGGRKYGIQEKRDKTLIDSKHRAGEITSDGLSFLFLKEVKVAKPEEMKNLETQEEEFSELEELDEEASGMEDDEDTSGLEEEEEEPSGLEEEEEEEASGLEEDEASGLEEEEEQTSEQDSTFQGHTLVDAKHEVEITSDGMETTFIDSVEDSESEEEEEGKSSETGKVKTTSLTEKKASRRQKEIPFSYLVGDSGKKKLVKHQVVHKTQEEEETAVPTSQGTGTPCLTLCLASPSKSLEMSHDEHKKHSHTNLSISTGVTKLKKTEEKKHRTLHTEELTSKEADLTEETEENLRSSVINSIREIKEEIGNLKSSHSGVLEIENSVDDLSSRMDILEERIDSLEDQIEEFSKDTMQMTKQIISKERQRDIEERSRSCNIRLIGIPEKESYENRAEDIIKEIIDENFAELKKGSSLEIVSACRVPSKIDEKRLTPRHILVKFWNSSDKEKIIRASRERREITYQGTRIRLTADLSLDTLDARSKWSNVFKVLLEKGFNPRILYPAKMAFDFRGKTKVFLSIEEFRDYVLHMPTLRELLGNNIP
UniProt Q07954: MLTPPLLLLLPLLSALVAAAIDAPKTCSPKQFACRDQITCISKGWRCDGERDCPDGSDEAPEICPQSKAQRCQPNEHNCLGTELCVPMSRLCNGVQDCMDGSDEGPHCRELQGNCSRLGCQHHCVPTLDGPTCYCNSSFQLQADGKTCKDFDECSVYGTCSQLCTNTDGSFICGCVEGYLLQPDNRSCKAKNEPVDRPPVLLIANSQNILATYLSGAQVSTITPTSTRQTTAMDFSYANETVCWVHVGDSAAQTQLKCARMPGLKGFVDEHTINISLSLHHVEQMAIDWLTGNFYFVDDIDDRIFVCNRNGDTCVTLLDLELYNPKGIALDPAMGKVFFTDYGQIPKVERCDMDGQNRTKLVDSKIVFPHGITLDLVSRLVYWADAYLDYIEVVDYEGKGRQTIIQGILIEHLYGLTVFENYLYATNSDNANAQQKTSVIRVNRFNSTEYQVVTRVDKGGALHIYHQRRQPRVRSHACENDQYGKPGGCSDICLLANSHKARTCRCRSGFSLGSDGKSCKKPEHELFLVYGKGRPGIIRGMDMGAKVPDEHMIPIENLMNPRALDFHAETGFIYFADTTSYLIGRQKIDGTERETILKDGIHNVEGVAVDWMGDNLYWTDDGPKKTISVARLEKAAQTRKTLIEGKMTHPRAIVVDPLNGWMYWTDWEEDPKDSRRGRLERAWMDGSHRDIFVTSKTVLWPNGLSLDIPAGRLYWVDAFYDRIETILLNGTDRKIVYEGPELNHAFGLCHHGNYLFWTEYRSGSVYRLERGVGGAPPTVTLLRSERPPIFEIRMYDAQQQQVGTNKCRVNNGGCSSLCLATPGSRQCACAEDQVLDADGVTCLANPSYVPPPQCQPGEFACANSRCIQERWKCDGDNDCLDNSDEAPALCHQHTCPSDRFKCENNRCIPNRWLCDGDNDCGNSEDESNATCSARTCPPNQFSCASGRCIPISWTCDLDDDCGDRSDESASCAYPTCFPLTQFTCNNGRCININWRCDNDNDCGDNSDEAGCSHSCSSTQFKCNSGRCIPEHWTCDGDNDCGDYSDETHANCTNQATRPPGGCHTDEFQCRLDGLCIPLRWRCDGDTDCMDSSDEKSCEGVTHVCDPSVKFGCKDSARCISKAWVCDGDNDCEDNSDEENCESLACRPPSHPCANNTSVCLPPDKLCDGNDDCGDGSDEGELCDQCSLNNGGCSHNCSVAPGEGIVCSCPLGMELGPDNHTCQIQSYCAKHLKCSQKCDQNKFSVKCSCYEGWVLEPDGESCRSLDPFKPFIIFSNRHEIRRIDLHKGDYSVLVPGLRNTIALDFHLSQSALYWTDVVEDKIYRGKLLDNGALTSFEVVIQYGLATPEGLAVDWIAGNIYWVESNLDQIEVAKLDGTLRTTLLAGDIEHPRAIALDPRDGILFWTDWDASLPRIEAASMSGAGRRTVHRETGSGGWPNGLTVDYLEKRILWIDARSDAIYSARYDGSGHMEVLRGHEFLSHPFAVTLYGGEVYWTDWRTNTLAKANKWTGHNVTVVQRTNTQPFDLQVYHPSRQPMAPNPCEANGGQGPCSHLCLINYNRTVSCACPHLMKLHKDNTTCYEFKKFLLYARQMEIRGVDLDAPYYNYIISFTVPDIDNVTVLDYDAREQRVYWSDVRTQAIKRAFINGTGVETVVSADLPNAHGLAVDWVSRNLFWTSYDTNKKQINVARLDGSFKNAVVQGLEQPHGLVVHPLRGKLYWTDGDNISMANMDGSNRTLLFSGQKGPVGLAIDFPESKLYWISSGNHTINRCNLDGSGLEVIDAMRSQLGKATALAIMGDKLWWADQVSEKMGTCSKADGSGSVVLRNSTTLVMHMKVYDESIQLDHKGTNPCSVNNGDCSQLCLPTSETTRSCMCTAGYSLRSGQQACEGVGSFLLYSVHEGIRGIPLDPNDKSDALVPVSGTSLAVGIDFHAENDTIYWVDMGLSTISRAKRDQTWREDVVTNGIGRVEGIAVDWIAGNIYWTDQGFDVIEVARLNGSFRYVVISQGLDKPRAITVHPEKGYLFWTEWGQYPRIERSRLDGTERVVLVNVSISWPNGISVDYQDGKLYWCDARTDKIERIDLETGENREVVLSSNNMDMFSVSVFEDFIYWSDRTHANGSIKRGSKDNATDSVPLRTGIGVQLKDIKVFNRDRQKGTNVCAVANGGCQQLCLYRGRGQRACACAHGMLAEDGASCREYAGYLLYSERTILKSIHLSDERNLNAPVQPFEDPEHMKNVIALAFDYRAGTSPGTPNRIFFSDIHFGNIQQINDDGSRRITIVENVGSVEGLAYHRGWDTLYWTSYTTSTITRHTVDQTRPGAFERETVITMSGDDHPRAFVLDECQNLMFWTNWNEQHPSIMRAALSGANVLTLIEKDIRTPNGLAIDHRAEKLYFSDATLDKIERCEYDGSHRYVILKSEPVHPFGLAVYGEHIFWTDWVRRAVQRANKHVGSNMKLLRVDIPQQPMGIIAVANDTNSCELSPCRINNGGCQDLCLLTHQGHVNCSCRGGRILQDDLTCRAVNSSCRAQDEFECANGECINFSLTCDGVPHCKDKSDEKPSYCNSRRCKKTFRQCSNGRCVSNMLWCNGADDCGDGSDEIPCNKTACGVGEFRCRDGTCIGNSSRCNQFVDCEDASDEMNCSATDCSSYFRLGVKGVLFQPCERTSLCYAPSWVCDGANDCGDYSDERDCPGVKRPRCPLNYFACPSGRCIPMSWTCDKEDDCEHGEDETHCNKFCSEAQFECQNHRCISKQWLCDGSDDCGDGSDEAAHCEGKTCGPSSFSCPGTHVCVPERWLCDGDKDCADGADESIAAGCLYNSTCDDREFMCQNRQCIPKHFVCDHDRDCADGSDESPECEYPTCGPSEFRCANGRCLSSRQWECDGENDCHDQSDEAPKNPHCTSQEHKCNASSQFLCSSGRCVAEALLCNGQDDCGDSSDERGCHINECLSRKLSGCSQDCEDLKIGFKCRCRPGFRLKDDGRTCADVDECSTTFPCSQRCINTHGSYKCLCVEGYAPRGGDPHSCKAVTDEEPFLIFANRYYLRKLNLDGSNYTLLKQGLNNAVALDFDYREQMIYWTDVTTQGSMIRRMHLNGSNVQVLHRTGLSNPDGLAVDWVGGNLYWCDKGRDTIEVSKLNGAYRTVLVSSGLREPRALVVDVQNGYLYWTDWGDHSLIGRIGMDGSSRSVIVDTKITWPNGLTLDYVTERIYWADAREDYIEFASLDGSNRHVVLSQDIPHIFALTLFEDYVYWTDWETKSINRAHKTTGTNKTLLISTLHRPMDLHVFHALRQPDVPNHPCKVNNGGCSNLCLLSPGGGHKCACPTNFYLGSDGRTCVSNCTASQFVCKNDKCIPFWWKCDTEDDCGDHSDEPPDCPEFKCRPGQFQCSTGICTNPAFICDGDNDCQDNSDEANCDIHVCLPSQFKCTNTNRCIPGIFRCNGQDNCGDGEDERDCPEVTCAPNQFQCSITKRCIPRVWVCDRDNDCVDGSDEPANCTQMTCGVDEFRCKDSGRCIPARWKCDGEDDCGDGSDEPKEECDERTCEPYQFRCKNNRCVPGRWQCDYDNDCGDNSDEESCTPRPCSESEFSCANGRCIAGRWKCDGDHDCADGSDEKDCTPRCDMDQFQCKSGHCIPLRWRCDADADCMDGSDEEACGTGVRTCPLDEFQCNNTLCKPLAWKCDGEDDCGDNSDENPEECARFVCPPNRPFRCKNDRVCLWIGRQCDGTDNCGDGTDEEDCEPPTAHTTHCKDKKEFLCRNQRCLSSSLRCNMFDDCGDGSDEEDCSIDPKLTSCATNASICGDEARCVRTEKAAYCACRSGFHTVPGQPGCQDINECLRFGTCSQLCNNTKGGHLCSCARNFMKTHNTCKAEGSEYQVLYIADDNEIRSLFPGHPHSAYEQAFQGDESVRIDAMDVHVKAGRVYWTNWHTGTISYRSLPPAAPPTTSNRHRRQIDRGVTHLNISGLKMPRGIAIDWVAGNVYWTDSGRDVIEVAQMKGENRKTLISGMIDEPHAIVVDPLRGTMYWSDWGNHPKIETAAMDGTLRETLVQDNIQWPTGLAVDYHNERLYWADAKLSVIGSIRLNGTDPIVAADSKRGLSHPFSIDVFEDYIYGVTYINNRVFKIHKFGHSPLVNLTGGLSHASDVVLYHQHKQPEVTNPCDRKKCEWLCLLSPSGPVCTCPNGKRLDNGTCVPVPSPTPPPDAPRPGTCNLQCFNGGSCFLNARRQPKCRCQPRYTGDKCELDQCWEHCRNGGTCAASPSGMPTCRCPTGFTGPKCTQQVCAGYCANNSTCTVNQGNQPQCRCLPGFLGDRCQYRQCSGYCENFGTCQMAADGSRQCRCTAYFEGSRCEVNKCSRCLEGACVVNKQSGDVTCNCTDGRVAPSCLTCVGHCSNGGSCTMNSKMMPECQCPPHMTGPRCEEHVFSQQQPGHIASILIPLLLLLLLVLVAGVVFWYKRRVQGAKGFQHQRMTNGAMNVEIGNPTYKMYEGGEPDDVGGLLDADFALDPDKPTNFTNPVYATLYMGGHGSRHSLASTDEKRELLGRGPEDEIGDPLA
UniProt P06858: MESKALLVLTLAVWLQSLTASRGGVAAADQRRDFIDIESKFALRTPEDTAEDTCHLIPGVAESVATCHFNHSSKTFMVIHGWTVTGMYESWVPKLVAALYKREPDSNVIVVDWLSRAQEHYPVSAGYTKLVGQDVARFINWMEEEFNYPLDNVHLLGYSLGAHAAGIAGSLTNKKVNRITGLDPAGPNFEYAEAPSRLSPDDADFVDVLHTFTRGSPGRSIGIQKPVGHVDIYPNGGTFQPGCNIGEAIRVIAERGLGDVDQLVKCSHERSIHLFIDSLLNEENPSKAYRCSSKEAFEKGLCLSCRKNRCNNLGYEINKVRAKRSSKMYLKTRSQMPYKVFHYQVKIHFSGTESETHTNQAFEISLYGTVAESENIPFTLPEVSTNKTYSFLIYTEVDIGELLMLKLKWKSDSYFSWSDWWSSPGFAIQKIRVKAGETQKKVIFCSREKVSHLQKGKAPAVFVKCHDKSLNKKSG
UniProt Q53QV2: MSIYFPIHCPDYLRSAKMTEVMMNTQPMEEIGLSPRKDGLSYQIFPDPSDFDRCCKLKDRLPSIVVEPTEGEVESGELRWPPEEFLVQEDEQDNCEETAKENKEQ
UniProt Q52LA3: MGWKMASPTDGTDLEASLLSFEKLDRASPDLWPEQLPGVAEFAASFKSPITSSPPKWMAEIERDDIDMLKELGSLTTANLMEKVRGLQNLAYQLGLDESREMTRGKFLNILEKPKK

Some of the results follow.

Compound in one assay: Cc1cccc(CC(=O)N2CCc3c2ccc(-c2cn(C)c4ncnc(N)c24)c3F)n1
The experiment in a line: log2 fold change, soluble protein after heating vs DMSO (PISA); higher = thermal stabilisation; K562 cells, 10 uM, 30 min; active = over 0.2 and 3.5 SD of the protein, either way, in both replicates (recomputed). In short, it runs like this: (§1)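 Soluble protein was quantified by TMTpro 16plex LC-MS/MS after channel sums were equalised. It was obtained as the supernatant after 21,000xg for 90 min from pooled aliquots of K562 cells (2×10^6 cells/mL, 10 μM compound, 30 min) heated for 3 min across 48°C-58°C and extracted in PBS with 0.5% NP-40 at 4°C. Thermal stability values are relative to control samples and come from duplicates. They are given as log2 fold changes.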
As for LRG1 (UniProt P02750), the log2 fold change was inactive: 0.001.
On the same count and under the same terms, next, LEPROT (UniProt O15243): inactive: 0.03; LGMN (UniProt Q99538): inactive: -0.159.
Take L1TD1 (UniProt Q5T7N2): the log2 fold change was inactive: 0.093.
On the same count and under the same terms, next, LIG4 (UniProt P49917): inactive: -0.198; LIN37 (UniProt Q96GY3): inactive: -0.249.
Same read-out and setting: next, LATS1 (UniProt O95835): inactive: -0.075.
LARP1B, A0A3B3ISF0: the log2 fold change was inactive: 0.016.
On the same count and under the same terms, next, LRP1 (UniProt Q07954): inactive: -0.038.
Take LRCH4 (UniProt O75427): the log2 fold change was inactive: 0.067.
On the same count and under the same terms, then LPL (UniProt P06858), with inactive: -0.088.
As to LAMC1 (UniProt P11047), the log2 fold change is inactive: -0.045.

Compound in a further assay: Cc1cn(-c2cc(NC(=O)c3ccc(C)c(Nc4nccc(-c5cccnc5)n4)c3)cc(C(F)(F)F)c2)cn1 [nilotinib]
The assay is described as above. In short, it runs like this: as §1
For LIG4 (UniProt P49917), the log2 fold change is inactive: -0.009.
Consider LRP1 (UniProt Q07954), for which the log2 fold change was inactive: -0.375.
Still for that read-out and setting: next, LBH (UniProt Q53QV2): inactive: 0.029.
LGALS3BP (UniProt Q08380): the log2 fold change is inactive: 0.063.

Compound in another assay: Cc1nc(Nc2n[nH]c3c2CN(C(=O)N[C@H](CN(C)C)c2ccccc2)C3(C)C)c2sccc2n1
Described as above. A digest of the protocol:
as §1
LIG4 (UniProt P49917): the log2 fold change is inactive: 0.016.
As for LRP1 (UniProt Q07954), the log2 fold change was inactive: -0.107.
For the target LBH (UniProt Q53QV2), the log2 fold change was inactive: 0.019.
Consider LGALS3BP (UniProt Q08380), for which the log2 fold change is inactive: -0.116.

Compound in the next assay: Cc1nc(Nc2ncc(C(=O)Nc3c(C)cccc3Cl)s2)cc(N2CCN(CCO)CC2)n1 [dasatinib]
The description is as above. In short, it runs like this: as §1
With LRG1 (UniProt P02750), the log2 fold change was inactive: 0.028.
Turning to LEPROT (UniProt O15243), the log2 fold change was inactive: 0.188.
The same measure, in the same setting: then L1TD1 (UniProt Q5T7N2), with inactive: 0.061; and LAMB2 (UniProt P55268), with inactive: -0.014; and LIG4 (UniProt P49917), with inactive: -0.218.
On the same count and under the same terms, next, LLGL1 (UniProt Q15334): inactive: 0.158.
The same measure, in the same setting: then LRP1 (UniProt Q07954), with inactive: 0.083.
On to LRCH4 (UniProt O75427), for which the log2 fold change was inactive: -0.039.
On the same count and under the same terms, next, LPL (UniProt P06858): inactive: 0.111; LIN52 (UniProt Q52LA3): inactive: -0.049; LAMC1 (UniProt P11047): inactive: -0.536.
LIPT2 (UniProt A6NK58): the log2 fold change is inactive: -0.035.
With LGALSL (UniProt Q3ZCW2), the log2 fold change was inactive: -0.114.

Compound in another assay: Cc1ncc(-c2ccnc(Nc3ccc(S(C)(=O)=O)cc3)n2)n1C(C)C
Described as above. In short, it runs like this:
as §1
As to LIG4 (UniProt P49917), the log2 fold change is inactive: 0.058.
On the same count and under the same terms, next, LRP1 (UniProt Q07954): inactive: -0.109; LBH (UniProt Q53QV2): inactive: -0.082; LGALS3BP (UniProt Q08380): inactive: 0.056.

Compound in another assay: Cn1cc(-c2ccc3c(c2)CCN3C(=O)Cc2cccc(C(F)(F)F)c2)c2c(N)ncnc21
The description is as above. A digest of the protocol: as §1
For the target LIMD2 (UniProt Q9BT23), the log2 fold change was inactive: -0.034.
On the same count and under the same terms, next, LRG1 (UniProt P02750): inactive: 0.182; LIMS1 isoform 5 (UniProt P48059): inactive: -0.118.
On the same count and under the same terms, then LEPROT (UniProt O15243), with inactive: -0.193; and L1TD1 (UniProt Q5T7N2), with inactive: -0.191; and LPCAT4 (UniProt Q643R3), with inactive: -0.202.
On the same count and under the same terms, next, LLGL1 (UniProt Q15334): inactive: -0.137; LBHD1 (UniProt Q9BQE6): inactive: -0.119.
For the target LDHD (UniProt Q86WU2), the log2 fold change is inactive: -0.102.
On the same count and under the same terms, then LPL (UniProt P06858), with inactive: -0.183.

Compound in the next assay: Cn1cc(-c2ccc3nnc(C(F)(F)c4ccc5ncccc5c4)n3n2)cn1
The assay is described as above. In short, it runs like this: as §1
On to LRG1 (UniProt P02750), for which the log2 fold change is inactive: 0.121.
Same read-out and setting: then LAMB2 (UniProt P55268), with inactive: 0.031; and LARP1B, A0A3B3ISF0, with inactive: -0.13; and LRCH4 (UniProt O75427), with inactive: -0.147.
Same read-out and setting: next, LBH (UniProt Q53QV2): inactive: 0.04; LRMP (UniProt Q12912): inactive: 0.278.

Compound in a further assay: Cn1cncc1[C@@](N)(c1ccc(Cl)cc1)c1ccc2c(c1)c(-c1cccc(Cl)c1)cc(=O)n2C [tipifarnib]
Described as above. In short, it runs like this:
as §1
As for LIMD2 (UniProt Q9BT23), the log2 fold change was inactive: -0.125.
The same measure, in the same setting: next, LHFPL2 (UniProt Q6ZUX7): inactive: 0.039; LRG1 (UniProt P02750): inactive: 0.072; LGMN (UniProt Q99538): inactive: 0.046.
On the same count and under the same terms, then LAMB2 (UniProt P55268), with inactive: 0.041.
On to LIN37 (UniProt Q96GY3), for which the log2 fold change is inactive: 0.012.
On to LLGL1 (UniProt Q15334), for which the log2 fold change is inactive: 0.129.
Consider LARP1B, A0A3B3ISF0, for which the log2 fold change was inactive: 0.011.
LBH (UniProt Q53QV2): the log2 fold change was inactive: 0.089.
On the same count and under the same terms, then LPL (UniProt P06858), with inactive: 0.032.

Compound in a further assay: FC(F)(F)c1ccc(/C=C/c2nc(COc3ccc(CCCCn4ccnn4)cc3)co2)cc1 [mubritinib]
The assay is described as above. In short, it runs like this:
as §1
Turning to LRG1 (UniProt P02750), the log2 fold change is inactive: 0.021.
With LEPROT (UniProt O15243), the log2 fold change was inactive: 0.041.
Still for that read-out and setting: next, L1TD1 (UniProt Q5T7N2): inactive: 0.087; LAMB2 (UniProt P55268): inactive: 0.339.
In the case of LRP1 (UniProt Q07954), the log2 fold change was inactive: 0.194.
Same read-out and setting: then LBH (UniProt Q53QV2), with inactive: 0.032; and LPL (UniProt P06858), with inactive: -0.034; and LIN52 (UniProt Q52LA3), with inactive: -0.117.
LIPT1 (UniProt Q9Y234): the log2 fold change was inactive: -0.701.
As for LOR (UniProt P23490), the log2 fold change is inactive: -0.579.
On the same count and under the same terms, next, LGALSL (UniProt Q3ZCW2): inactive: -0.284.
